Some of the results follow.
system: T1, CTL2-GFP (C. trachomatis L2/434/Bu, GFP-expressing); design: species or system HeLa; Intracellular C. trachomatis growth in HeLa cells, bulk GFP fluorescence relative to DMSO; conditions: bulk GFP, single well; 28.5 h, 10 µM; inhibitor
T1 construct: L2/434/Bu, GFP-expressing

| SMILES | % of control remaining [%] |
| --- | --- |
| CCNC(=O)Nc1ccc2ccc(-c3ccsc3)nc2n1 [CBK070699] | 101.631 |
| Nc1ncnc(Nc2ccc(Nc3ccccc3)cc2)c1[N+](=O)[O-] [CBK267347] | 171.281 |
| CC(=O)N1CC(C(=O)Nc2ncc(-c3ccccc3)n2C)C1 [CBK281373] | 119.412 |
| O=C(/C=C/c1ccc(F)cc1)NCCc1ccc(S(=O)(=O)N2CCCC2)cc1 [CBK265227] | 129.086 |
| CCOC(=O)C1CCN(C(=O)Nc2cc(C)on2)CC1 [CBK306280] | 140.187 |
| Cn1c(CO)nnc1[C@H]1C[C@@H](NC(=O)COc2ccc(Cl)c(Cl)c2)C1 [CBK306667] | 106.357 |
| Cc1cc(S(=O)(=O)NCc2cc(F)c(F)c(F)c2)c(C)cc1Cl [CBK043813] | 117.2 |
| O=C(Nc1ccc(N2CCN(Cc3ccccc3F)CC2)cc1)c1cc2ccccc2o1 [CBK267210] | 153.008 |
| CCc1nnsc1C(=O)Nc1nn(C)c2cccc(N3CCOCC3)c12 [CBK307671] | 134.045 |
| COc1ccccc1NC(=O)C(=O)N/N=C/c1ccc(C(=O)O)cc1 [CBK262148] | 112.718 |
| CC(=O)c1c2c(c(N3CCN(C#N)CC3)[nH]c1=S)CC(C)(C)OC2 [CBK018622] | 114.714 |
| C=CCn1c2cc(C)sc2c2cnn(CC(=O)OC)c(=O)c21 [CBK284166] | 157.648 |
| Cc1nn2c(-c3ccncc3)ccnc2c1-c1ccccc1 [CBK288548] | 128.961 |
| CCCc1ccc(OCC(=O)Nc2ccccc2C(N)=O)cc1 [CBK263103] | 91.2585 |
| Cn1c(/C(C#N)=C\c2ccc(-c3ccc(S(N)(=O)=O)cc3)o2)nc2ccccc21 [CBK266380] | 177.579 |
| Cc1c(C)n(CC(O)CNCc2ccco2)c2ccccc12 (stereo not shown) [CBK263970G] | 90.1782 |
| Cc1ccc(OCCn2c(SCCC(=O)O)nc3ccccc32)cc1 [CBK262561] | 100 |
| CN1CCN(C)C(COc2ncccc2C(F)(F)F)C1 (stereo not shown) [CBK113458] | 107.891 |
| Nc1nc(OCc2ccncc2)cnc1-c1ccc(OC(F)(F)F)cc1 [CBK145121] | 130.142 |
| CC(=O)Nc1ccc(-c2ccc(C(=O)NCCc3ccc(O)cc3)cn2)cc1 [CBK158840] | 87.6023 |
| O=C(NCCCn1cccn1)N1CCCN(Cc2ccc(Cl)cc2)CC1 [CBK305447] | 87.7219 |
| COc1cccc(CC(=O)Nc2nc(Cc3n[nH]c(=S)n3C)cs2)c1 [CBK296634] | 101.263 |
| CCCCc1c(O)nc(SCC(=O)NCC2CCCO2)[nH]c1=O (stereo not shown) [CBK073281] | 119.63 |
| CCCCNc1cc(N2CCOC(c3cnn(CC)c3)C2)nc(N)n1 (stereo not shown) [CBK305423] | 121.438 |
| COc1ccc(C(=O)Nc2noc3nc(C)ccc23)cc1OC [CBK287832] | 107.634 |
| COCCNC(=O)Nc1ccc2nc(-c3ccccn3)c(-c3ccccn3)nc2c1 [CBK265151] | 118.066 |
| Nc1ncc(-c2cncnc2)nc1NCc1ccccc1 [CBK063584] | 232.361 |

| SMILES | % of control remaining [%] |
| --- | --- |
| OCc1ccc(-c2nccnc2NCC2CC2)cc1 [CBK037334] | 194.867 |
| CCNC(=O)C1(Cc2ccccc2-c2cccnc2)CCOCC1 [CBK285218] | 113.867 |
| NC(=O)N/N=C/COc1cccc(C(F)(F)F)c1 [CBK022736] | 108.474 |
| FC(F)(F)c1cccc(SCc2ccc(Cl)cc2)n1 [CBK107197] | 113.415 |
| CN(C)C(=O)CO[C@@H]1CO[C@H]2[C@@H]1OC[C@@H]2Nc1nccc(-c2cccc(F)c2)n1 [CBK289533] | 99.5367 |
| COCCNc1cc(-c2cccc(F)c2C(N)=O)c2cc[nH]c2n1 [CBK307682] | 97.9745 |
| Cc1ccc(S(=O)(=O)NCC(=O)Nc2cnc(-c3cccc(C)c3)c(-c3ccc(N)cc3)n2)cc1 [CBK037600] | 133.53 |
| O=C(CCc1ccc(S(=O)(=O)NC2CC2)cc1)N1CCCC1c1ccncc1 (stereo not shown) [CBK296673] | 120.605 |
| CC1(C)CC(CC(=O)NN)(c2ccccc2)CCO1 (stereo not shown) [CBK261358C] | 100 |
| Oc1ccc(Oc2ccc(Oc3ccc(O)cc3)cc2)cc1 [CBK033968] | 109.395 |
| Cc1nc2ccccc2c(C(=O)O)c1-c1ccccc1 [CBK274187] | 118.95 |
| CCc1nn(CC(=O)N(CC)CC)c(=O)c2cc3sccc3n12 [CBK284054] | 144.801 |
| COc1ccc(-c2cn[nH]c2-c2ccc(OCCN3CCOCC3)cc2O)cc1 [CBK288112] | 145.267 |
| O=C(Nc1cc(Oc2ccc(F)cc2)cc(Oc2cccnc2)c1)c1nn2c(C(F)(F)F)cc(-c3cccs3)nc2c1Cl [CBK262568] | 100 |
| CCC1Oc2ccc(C(O)c3ccco3)cc2N(Cc2cccc(OC)c2)C1=O (stereo not shown) [CBK286190] | 153.574 |
| Cc1cccc(NC(=O)C(Cc2ccccc2)C(=O)Nc2cccc(C)c2)c1 [CBK266899] | 172.703 |
| OCCN(CCO)c1nccnc1-c1ccccc1F [CBK036610] | 156.98 |
| CC(=O)N1CCN([C@H]2[C@@H]3OC[C@@H](O3)[C@@H](NC(=O)NC3CCCCC3)[C@@H]2O)CC1 [CBK288810] | 126.173 |
| CC(C)c1nnc(NC(=O)CC2CCN(C(=O)C3(c4ccccc4)CCCC3)CC2)s1 [CBK285905] | 104.93 |
| COC(=O)c1cccc(OCCn2c(=O)c(C#N)cn(C3CC3)c2=O)c1 [CBK305990] | 126.547 |
| CCn1cc(NC(=O)CC(C)(O)c2ccccc2)ccc1=O (stereo not shown) [CBK304507] | 126.948 |
| COCC(O)CN(C)c1nc(-c2ccncc2)nc2ccccc12 (stereo not shown) [CBK305170] | 119.317 |
| O=C(O)CN(c1ccc([N+](=O)[O-])cc1)S(=O)(=O)c1ccccc1 [CBK263782] | 125.3 |
| Nc1nc(C2CC(O)C2)cc(N2CCC(Oc3ccccc3Cl)CC2)n1 (stereo not shown) [CBK307392] | 82.3056 |
| O=C(CC1C(=O)N(Cc2ccccc2)C(=S)N1Cc1ccccc1)Nc1ccccc1 (stereo not shown) [CBK263871] | 96.5364 |
| Cc1c(C(=O)N2CCCC(c3cc4ncccc4[nH]3)C2)cnn1C (stereo not shown) [CBK283420] | 158.643 |
| COc1ccccc1CN(C)C(C)C(=O)Nc1sccc1C(N)=O (stereo not shown) [CBK306466] | 105.599 |

| SMILES | % of control remaining [%] |
| --- | --- |
| COCc1cccc(Nc2ncnc3c2cnn3CCC#N)c1 [CBK305983] | 118.11 |
| Cn1cc(C(=O)CCC(=O)NC2CCCN(c3ncccn3)C2)cn1 (stereo not shown) [CBK305480] | 151.903 |
| Cc1csc(C(Cc2cccs2)NC(=O)CN2CCCC2=O)n1 (stereo not shown) [CBK284691] | 109.775 |
| N#CC(NS(=O)(=O)c1ccc(OC(F)(F)F)cc1)c1ccccc1 (stereo not shown) [CBK043714] | 126.339 |
| Cc1nn(C)cc1S(=O)(=O)N1CCCC(c2cccc(Cc3ccc(Cl)cc3)n2)C1 (stereo not shown) [CBK286506] | 100.18 |
| COc1ccccc1CNc1ncnc2[nH]ncc12 [CBK288100] | 140.951 |
| COc1ccc2[nH]cc(CCNC(=O)c3ccccn3)c2c1 [CBK115866] | 107.104 |
| C(=N\c1cccc2c(/N=C/c3c[nH]c4ccccc34)cccc12)/c1c[nH]c2ccccc12 [CBK260887] | 111.212 |
| CCCCOc1ccc(Oc2ncc(C(F)(F)F)cc2Cl)cc1 [CBK161629] | 127.35 |
| O=c1c2c3c(sc2nc(SCc2nc4ccccc4[nH]2)n1Cc1ccco1)CCC3 [CBK268306] | 104.14 |
| Oc1nc(O)c2c3c(n(CCn4ccnc4)c2n1)CCCC3 [CBK024380B] | 114.516 |
| CS(=O)(=O)N1CCC(C(=O)NC(c2ccccc2)c2cnccn2)CC1 (stereo not shown) [CBK059901] | 87.672 |
| CC(=O)Nc1cccc(-c2ccc(Nc3cccnc3)nc2)c1 [CBK037703] | 192.721 |
| CS(=O)(=O)N1CC2(CCN(CCc3ccc(F)cc3)CC2)c2ccccc21 [CBK084103] | 100 |
| O=C(c1ccc(-c2ccoc2)nc1)N1CCCC1 [CBK156284] | 116.48 |
| Cc1ccc2nc(-c3ccncc3)cc(C(=O)Nc3ccc(C(F)(F)F)cc3)c2c1 [CBK267732] | 114.158 |
| COc1ccc(OC(=O)c2cccc(F)c2)c(C(C)=O)c1 [CBK088044] | 106.807 |
| CCCC/C=C/c1cnc(N)c(-c2ccc(CCC(=O)O)cc2)n1 [CBK064127] | 104.873 |
| Cc1ccc(CNC(Cc2c[nH]c3ccccc23)C(=O)O)cc1 (stereo not shown) [CBK287145] | 99.6432 |
| CCOc1ccccc1Cn1c2ccccc2c2nc3ccccc3nc21 [CBK266323] | 139.797 |
| O=C(Cc1c[nH]cn1)N1CCC2(CCN(Cc3ccccc3)C2)C1 (stereo not shown) [CBK137147] | 147.879 |
| Cc1cc(C(=O)N2CCC(Oc3nccn(Cc4ccc(S(C)(=O)=O)cc4)c3=O)CC2)ccc1Cl [CBK161883] | 109.042 |
| N#CCCNS(=O)(=O)c1ccc(OC(F)(F)F)cc1 [CBK043560] | 157.837 |
| Cc1c(C(=O)N2CC(n3cc(C(C)O)nn3)C2)sc2ccc(F)cc12 (stereo not shown) [CBK305446] | 136.861 |
| Cc1ncsc1C(=O)N1CCCCC1c1nc2ccccc2[nH]1 (stereo not shown) [CBK283531] | 117.787 |

Copied from the list.
For % of control remaining [%], Oc1nc(O)c2c3c(n(CCn4ccnc4)c2n1)CCCC3 [CBK024380B] has the entry 114.516
For % of control remaining [%], COc1ccc(OC(=O)c2cccc(F)c2)c(C(C)=O)c1 [CBK088044] has the entry 106.807
For % of control remaining [%], Nc1ncc(-c2cncnc2)nc1NCc1ccccc1 [CBK063584] has the entry 232.361

— paper PMC12040169 (PLOS Biology, 2025)
